This is one part of the list. Further columns of the screen follow, without active or inactive calls. Compounds called inactive in the main read-out are mostly missing here. Potencies come from curve fits of mixed quality, noted in brackets.

One may read the AC50 as the concentration at which the activity in the assay is half-maximal.

The test is described as follows: qHTS Assay to Find Inhibitors of Chronic Active B-Cell Receptor Signaling. To be noted: ABC-DLBCL IkBa-CBG/CBR reporter, luminescence ratio (green luciferase fused to IkBa over red control in TMD8 lymphoma cells), 4 h. Put shortly:
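TMD8 ABC-DLBCL cells carrying doxycycline-inducible green luciferase fused to IkappaBalpha plus unfused red luciferase were exposed to compounds (up to 46 uM) for 4 hrs at 37C. Activity came from the overlap-corrected green/red luminescence ratio.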
For orientation: qHTS replaces the single test concentration by a dilution series.

[1] abbreviates: measured here: CBR red luminescence, cell number.
The mark [2] stands for this setting: measured here: IkBa-CBG green luminescence.

On to `COc1ccc(S(=O)(=O)NC(CC(=O)O)c2ccco2)cc1` (centres undefined), for which the AC50 under setting [1] was 32.6 µM [rising, partial curve, poor fit].

Take `O=C1CC(NS(=O)(=O)c2ccc([N+](=O)[O-])cc2)CN1c1ccc2c(c1)OCCO2` (centres undefined): under setting [1], the AC50 is 18.4 µM [falling, single point].

On to `CCCCNC(=NCc1cccc(C(F)(F)F)c1)Nc1ccccc1`, for which the AC50 under setting [1] is 10 µM [falling, single point].

Turning to `O=C(N/N=C/c1ccc(O)cc1O)C(=O)N/N=C/c1ccc(O)cc1O`, the AC50 under setting [1] is 17.8 µM [falling, single point].

Consider `Cc1ccn(-c2cccc(-n3ccc(C)n3)n2)n1`, for which the concentration at half-maximal activity (AC50) under setting [1] was 32.6 µM [rising, single point].

In the case of `COc1ccc(/C=C/C(=O)Nc2nc(C)cc(C)n2)cc1OC`, under setting [1], the half-maximal activity concentration (AC50) is 35.5 µM [falling, single point].

For `CC(C(=O)NCc1ccco1)n1cc(C(=O)c2ccco2)c2ccccc21` (centres undefined), the AC50 under setting [1] was 20.6 µM [rising, single point].

In the case of `S=c1[nH]nc(-c2ccccc2)n1/N=C/c1ccc(-c2ccccc2Cl)o1`, the concentration at half-maximal activity (AC50) under setting [1] is 18.4 µM [rising, single point].

Regarding `CCCCOC(=O)n1c(=O)oc2cc(S(=O)(=O)N3CCCCC3)ccc21`, under setting [1], the concentration at half-maximal activity (AC50) is 6.51 µM [rising, single point].

With `O=C(COC(=O)CCC(=O)c1ccccc1)Nc1nnc(-c2ccccc2)o1`, under setting [1], the AC50 is 6.51 µM [rising, single point].

For `Cc1ccc(OCCNC(=O)c2cc(-n3cnnc3)ccc2Cl)cc1C`, the concentration at half-maximal activity (AC50) under setting [1] is 31.6 µM [falling, partial curve, poor fit].

For `O=c1oc(-c2cccs2)nc2ccccc12`, under setting [1], the AC50 is 11.6 µM [falling, partial curve].

On to `O=C(O)C1C(c2ccccc2)C(C(=O)OCCCO)C1c1ccccc1` (centres undefined), for which the AC50 under setting [1] is 3.55 µM [falling, partial curve, poor fit].

In the case of `Cc1cccn2c(=O)nc(SCC(=O)NCc3ccccc3)nc12`, the AC50 under setting [1] is 0.082 µM [rising, full curve, poor fit].

Regarding `Cc1cc(C)n(-c2cc(-c3ccccc3)nc(C)n2)n1`, the AC50 under setting [1] was 29.1 µM [falling, single point].

Consider `C=CCN1C(=O)[C@@H]2Cc3c([nH]c4ccccc34)C(c3cc(OC)c(OC)c(OC)c3)N2C1=S` (some centres undefined), for which, under setting [1], the AC50 is 14.1 µM [falling, single point].

In the case of `CC/C(=N\NC(=O)c1ccc2c(c1)OCO2)c1ccccc1`, under setting [1], the AC50 was 4.47 µM [falling, partial curve].

Turning to `C/C(CC(=O)Nc1ccccn1)=N\NC(=O)c1ccc(C)cc1`, under setting [1], the concentration at half-maximal activity (AC50) is 18.4 µM [falling, partial curve].

As to `Fc1ccc(-c2nnc(NC3=NCCCCC3)o2)cc1`, the AC50 under setting [1] is 1.78 µM [falling, full curve].

`COc1ccc(SC[C@H](Cc2ccccc2)N2CC[C@@H](NC(=O)OCc3ccccc3)CCC2=O)cc1`: the half-maximal activity concentration (AC50) under setting [1] was 32.6 µM [falling, partial curve, poor fit].

Take `CCN1/C(=C/c2ccc3cccc(C)c3[n+]2CC)Sc2ccccc21`: the concentration at half-maximal activity (AC50) under setting [1] was 17.8 µM [falling, single point].

For `OCCCc1nc2n(n1)C(c1cccs1)C=C(c1ccc(Br)cc1)N2` (centres undefined), under setting [1], the AC50 is 18.4 µM [falling, partial curve, poor fit].

With `O=C(Nc1ccc(N2CCOCC2)cc1)c1ccc([N+](=O)[O-])cc1`, the half-maximal activity concentration (AC50) under setting [1] was 3.98 µM [rising, full curve, poor fit].

Turning to `Cn1c(-c2ccccc2)cc2onc(-c3ccccc3)c2c1=O`, under setting [1], the AC50 is 5.17 µM [falling, single point].

As for `COc1ccc(OC)c(NC(=O)c2c(NCc3ccc(C)o3)sc3c2CCC(C)C3)c1` (centres undefined), the AC50 under setting [1] was 3.55 µM [rising, partial curve, poor fit].

Consider `O=C(Nc1nc2ccccc2s1)c1ccc2c(c1)OCO2`, for which the AC50 under setting [1] is 2.06 µM [falling, full curve].

For `O=C(Nc1ccc(OC(F)F)cc1)Nc1cccc(C(F)(F)F)c1`, the AC50 under setting [1] is 16.4 µM [falling, single point].

In the case of `O=C(O)c1cnn2c1NC(c1ccc(F)cc1)CC2C(F)(F)F` (centres undefined), the concentration at half-maximal activity (AC50) under setting [1] is 0.517 µM [rising, full curve, poor fit].

Take `O=C(O)c1cc(-c2ccco2)nc2cc3ccccc3cc12`: under setting [1], the concentration at half-maximal activity (AC50) is 17.8 µM [falling, single point].

Take `O=C(NNC(=O)c1cccnc1)Nc1ccccc1`: the AC50 under setting [1] was 5.62 µM [falling, full curve, poor fit].

With `O=C(c1cc(-c2ccc(Br)cc2)on1)N1CCCCCC1`, under setting [1], the AC50 is 1.12 µM [falling, full curve, poor fit].

Take `CC(=O)c1cccc(S(=O)(=O)NCCc2csc3nc(-c4ccc(F)cc4)nn23)c1`: the half-maximal activity concentration (AC50) reads like this: under setting [1], 8.91 µM [falling, partial curve]; under setting [2], 7.94 µM [rising, partial curve, poor fit].

Regarding `CC(C)(C)C(=O)Nc1ccc(/C=C/C(=O)c2ccco2)cc1`, the AC50 under setting [1] is 17.8 µM [falling, single point].

Take `O=C(O)COc1ccccc1C=NNc1ccc([N+](=O)[O-])cc1S(=O)(=O)Nc1ccc(Cl)cc1`: under setting [1], the AC50 is 25.9 µM [rising, partial curve, poor fit].

Turning to `O=C(OCCN=C1NS(=O)(=O)c2ccccc21)c1cccc([N+](=O)[O-])c1`, under setting [1], the AC50 is 0.2 µM [rising, full curve, poor fit].

For the compound `COc1ccccc1C(=O)NNC(=S)NC(=O)c1cc(OC)c(OC)c(OC)c1`, the concentration at half-maximal activity (AC50) under setting [2] is 3.55 µM [falling, partial curve, poor fit].

In the case of `Cc1[nH]c2ccccc2c1SCC(=O)Nc1nccs1`, under setting [1], the AC50 is 15.8 µM [falling, partial curve, poor fit].

For `O=C(CSc1nc(-c2cccs2)cc(C(F)(F)F)n1)NCCCN1CCOCC1`, under setting [1], the AC50 is 35.5 µM [rising, single point].

On to `CCCNC(=O)c1onc(CSc2ccc(F)cc2)c1C(=O)NCCC`, for which the concentration at half-maximal activity (AC50) under setting [1] was 35.5 µM [falling, single point].

Take `O=C(N/N=C/c1ccccn1)c1cccc(NC(=O)c2ccccc2Cl)c1`: under setting [1], the AC50 is 3.55 µM [falling, full curve].

As for `COc1ccc(CNC(=O)C(C#N)c2nc3ccccc3nc2N2CCCC2)cc1` (centres undefined), under setting [1], the AC50 is 6.31 µM [rising, single point].

In the case of `CSC(=NC#N)N1CCN(C(c2ccccc2)c2ccccc2)CC1`, the concentration at half-maximal activity (AC50) under setting [1] is 35.5 µM [falling, single point].

`CCc1ccccc1NCC(=O)Nc1ccccc1C(=O)OC`: under setting [1], the AC50 was 2.31 µM [falling, full curve, poor fit].

For `COc1ccc(C2CC(=O)C=C(NCc3ccccc3)C2)cc1` (centres undefined), under setting [1], the AC50 is 0.631 µM [falling, full curve, poor fit].

`COc1ccc(CN2CCN(Cc3nc4ccccc4s3)CC2CCO)c(C)c1C` (centres undefined): the half-maximal activity concentration (AC50) under setting [2] is 12.6 µM [falling, partial curve, poor fit].

As to `O=C(NCCc1ccc(Cl)cc1)c1cccc(N2CCCC2=O)c1`, under setting [1], the concentration at half-maximal activity (AC50) is 35.5 µM [falling, single point].

Take `O=C(COC(=O)CCCSc1nc2ccccc2[nH]1)Nc1ccc(Cl)cc1`: under setting [1], the half-maximal activity concentration (AC50) was 29.1 µM [falling, single point].

Turning to `Oc1c(Cl)cc(Cl)cc1CNc1ccc(Br)cn1`, the concentration at half-maximal activity (AC50) under setting [1] is 18.4 µM [rising, partial curve, poor fit].

As to `O=C(O)C1=CC[C@@H](c2ccc(Cl)cc2)N(S(=O)(=O)c2ccc(Cl)cc2)[C@H]1c1ccc(Br)cc1`, the concentration at half-maximal activity (AC50) under setting [1] is 18.4 µM [falling, single point].

As to `Cc1cc(C(=O)Nc2ccc(Cl)cc2)c(C)n1Cc1cccs1`, the AC50 under setting [1] is 15.8 µM [falling, single point].

As for `Cc1ccc(C2/C(=C(/O)c3ccc(OC(C)C)cc3)C(=O)C(=O)N2CCN2CCOCC2)cc1` (centres undefined), the half-maximal activity concentration (AC50) under setting [1] is 7.08 µM [falling, partial curve, poor fit].

For `COc1ccccc1-c1csc2ncnc(Sc3nnnn3C)c12`, the AC50 under setting [1] is 32.6 µM [falling, partial curve, poor fit].

Turning to `CSCCC(NS(=O)(=O)c1cccc(C(F)(F)F)c1)C(=O)Nc1ccccc1N1CCCC1` (centres undefined), the AC50 under setting [1] was 20.6 µM [falling, single point].

Turning to `COc1ccc(C(=O)/C=C/c2ccc(O)cc2)cc1`, under setting [1], the half-maximal activity concentration (AC50) is 20 µM [falling, single point].

With `C#CCOCCOCCOCCNc1nc(N2CCN(C(=O)CCCCCCCCCCNC(=O)[C@H](CO)n3cc(CCCSC)nn3)CC2)nc(N2CCN(C(=O)CCCCCCCCCCNC(=O)[C@H](CCCN=C(N)N)n3cc(C[C@@H](C)CC)nn3)CC2)n1`, the concentration at half-maximal activity (AC50) is, setting by setting: under setting [1], 16.4 µM [rising, partial curve]; under setting [2], 18.4 µM [falling, partial curve, poor fit].

For `O=C1N[C@H](Cc2ccccc2)COC(=O)[C@H](Cc2ccc(F)cc2)C/C=C\C[C@H]1CC(=O)N(CCO)Cc1ccccc1`, the AC50 under setting [1] was 29.1 µM [falling, single point].

On to `CCN(CC)c1ccc(NC(=O)c2ccccc2Br)cc1S(=O)(=O)Nc1ccccc1OC`, for which the half-maximal activity concentration (AC50) under setting [1] was 0.82 µM [rising, full curve, poor fit].

With `CN(NC(=S)Nc1ccc(OC(F)F)cc1)C(=S)Nc1ccc(OC(F)F)cc1`, the AC50 under setting [1] was 32.6 µM [rising, single point].

Take `CC(Sc1nnc(-c2ccc(O)cc2)o1)C(=O)Nc1cccc2ccccc12` (centres undefined): the AC50 by setting is: under setting [1], 1.46 µM [falling, full curve]; under setting [2], 32.6 µM [rising, partial curve, poor fit].

For `CCOC(=O)[C@@H]1[C@H]2COc3ccc(Br)cc3[C@H]2N2C(=O)N(c3ccc(Br)cc3)C(=O)[C@]12C`, under setting [1], the concentration at half-maximal activity (AC50) was 3.16 µM [falling, partial curve, poor fit].

For the compound `O=C(O)c1ccccc1C(=O)NC1Cc2ccccc2C1`, under setting [1], the AC50 is 31.6 µM [falling, single point].

The values above are taken from PubChem BioAssay AID493014 (National Center for Advancing Translational Sciences (NCATS), 2011).
